In the supplement of paper PMC6445147:
Values scatter widely in this assay.

B1: human tRNA-Pro; a variant is named by its letters at N, in order (parent)
chain: GGCTCGTTGGTCTAGNGGTATGATTCTCGCTTAGGGTGCGAGAGGTCCCGGGTTCNNATCCCGGACGAGCCC

Assays:
[1] = variants of: B1; test: tRNA Pol-III promoter activity, log2 (circRNA frequency / plasmid DNA frequency) (log2 ratio); higher = stronger promoter activity; settings: HEK293T; construct: no Pol-II promoter ((-)CMV library)
[2] = variants of: B1; test: tRNA 3' processing efficiency (processed reads / all reads, maximum-likelihood estimate) (fraction); higher = more efficient 3' processing; settings: HEK293T; construct: no Pol-II promoter ((-)CMV library)
[3] = variants of: B1; test: tRNA 5' processing efficiency (processed reads / all reads, maximum-likelihood estimate) (fraction); higher = more efficient 5' processing; settings: HEK293T; construct: CMV Pol-II promoter ((+)CMV library, decapped)

| Variant | tRNA Pol-III promoter activity (log2) [1] | tRNA 3' processing efficiency [2] | tRNA 5' processing efficiency [3] |
| --- | --- | --- | --- |
| GAA A14C T53A A58T | 3.45 | 0.17 |  |
| GAA A14C T53A A58G | 3.94 | 0.57 |  |
| TAA A14G T59C | 6.49 | 0.64 |  |
| GAA A14T T19C A58C | 5.36 | 0.2 |  |
| GAA A14C T19A | 2.25 | 0.17 |  |
| GAA A14C T19C | 3.54 | 0.42 |  |
| TAA A14G A58T | 3.94 | 0.53 |  |
| GAA A14G T59A | -0.0122 | 0.5 |  |
| GAA A14G T59C | 2.34 | 0.34 | 0.33 |
| GAA A14G T59G | 1.02 | 0.28 |  |
| CAA A14T C55T | 2.8 | 0.4 |  |
| GAA A14C G18C A58G | 3.93 | 0.73 |  |
| CAA A14C T19G | 5.45 | 0.13 |  |
| GAA A14T G18A T19A T59G | 6.62 | 0.5 |  |
| CAA A14G A58C | 6.38 | 0.92 |  |
| AAA A14G A58T | 5.46 | 0.2 |  |
| GAA A14G | -1.92 | 0.54 | 0.31 |
| GAA A14T | -0.974 | 0.55 | 0.24 |
| TAA A14G G15A | 2.57 | 0.25 |  |
| TAA A14C T59G | 4.91 | 0.1 |  |
| GAA A14G T19C A58T | 3.94 | 0.5 |  |
| GAA A14G T19A A20T | 3.36 | 0.4 |  |
| GAA A14T T54A T59A | 4.44 | 0.33 |  |
| TAA A14T T59A | 3.41 | 0.57 |  |
| TAA A14C T19G | 4.62 | 0.5 |  |
| GAA A14C T59A | 2.44 | 0.46 |  |
| GAA A14C T59C | 3.06 | 0.36 |  |
| GAA A14C T59G | 2.6 | 0.52 |  |

Looked up above.
Under tRNA 3' processing efficiency [2], GAA A14C T59A shows 0.46
Under tRNA Pol-III promoter activity (log2) [1], GAA A14C T19C shows 3.54
Under tRNA 3' processing efficiency [2], TAA A14G G15A shows 0.25
Under tRNA 3' processing efficiency [2], AAA A14G A58T shows 0.2
Under tRNA Pol-III promoter activity (log2) [1], GAA A14T G18A T19A T59G shows 6.62

(list continues)

| Variant | tRNA Pol-III promoter activity (log2) [1] | tRNA 3' processing efficiency [2] | tRNA 5' processing efficiency [3] |
| --- | --- | --- | --- |
| GAA A14C T53C T54C | 4.46 | 0.7 |  |
| GAA A14C G18A T59A | 7.53 | 0.25 |  |
| GAA A14G T53G | 0.701 | 0.36 |  |
| GAA A14G T53A | 0.265 | 0.22 | 0.33 |
| GAA A14G T53C | 0.876 | 0.38 | 0.25 |
| GAA A14C T19C A58T | 4.45 | 0.25 |  |
| GAA A14T A58C T59A | 3.63 | 0.44 |  |
| GAA A14T A58C T59C | 5.51 | 0.33 |  |
| GAA A14T A58C T59G | 4.94 | 0.4 | 0.4 |
| GAA A14G T19A T54A | 3.81 | 0.5 |  |
| TAA A14G A20T T53G | 5.74 | 0.14 |  |
| TAA A14T A58T | 3.17 | 0.36 |  |
| TAA A14T G15A T53G | 4.94 | 0.33 |  |
| GAA A14G G15A T59A | 2.77 | 0.4 |  |
| GAA A14G A58C T59C | 4.69 | 0.35 |  |
| GAA A14G A58C T59A | 4.94 | 0.6 |  |
| GAA A14G G18A A20T A58G | 6.93 | 0.5 |  |
| GAA A14C G15C T53A A58T | 5.62 | 0.17 |  |
| GAA A14T G18A A58T | 1.86 | 0.4 |  |
| GAA A14T G18A A58G | 1.62 | 0.25 |  |
| GAA A14G G17C G18A | 4.71 | 0.38 |  |
| AAA A14T A58G | 3.93 | 0.33 |  |
| GAA A14G T53A A58C | 5.59 | 0.68 |  |
| AAA A14G C55T A58G | 4.94 | 0.33 |  |
| GAA A14C T54A | 1.24 | 0.2 |  |
| AAA A14G | -0.932 | 0.25 |  |
| TAA A14T T53C | 3.93 | 0.1 |  |
